Measurements reported in patent US20200230201A1 (CITY OF HOPE, published 2020).
Results are given in words; binding and its absence hold for the method and conditions named. In cells and extracts the contact can be indirect. Some binding calls cover weakened binding; strength is not graded here. Where a sequence is shown, tags or fusion partners need not be part of it.

Sequences of proteins named here, by UniProt entry; tags and fusion partners are left off. A change or cut given only in a name is not applied to a line headed by its entry.
UniProt Q15672: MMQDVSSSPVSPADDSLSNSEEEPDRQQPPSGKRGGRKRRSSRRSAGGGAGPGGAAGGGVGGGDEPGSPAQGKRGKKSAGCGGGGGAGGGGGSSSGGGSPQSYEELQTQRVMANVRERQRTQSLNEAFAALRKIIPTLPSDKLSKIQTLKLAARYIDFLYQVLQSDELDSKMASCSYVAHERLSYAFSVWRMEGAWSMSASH

How the values were obtained:
[1] = target: TWIST1 (wild type, Myc-His tagged) (human) (UniProt Q15672); experiment: Co-IP, GFP pulldown (FIG. 4D legend)
[2] = target: TWIST1 (wild type, Myc-His tagged) (human) (UniProt Q15672); experiment: Co-IP, GFP pulldown, western blot for TWIST1, HEK-293 cells

binding [1]: binds
binding [2]: binds
B1: GFP-WR domain fusion protein (peptide, not shown: large carriers)
chain: LELSYAFSVWRMEGAWSMSASH
